No constants are given. Whether binding was seen depends on the method and setting. Some entries that bind do so weakly or less than the wild type. Tags and fused reporters may be left off the sequences shown.

Protein sequences, listed by entry. Tags and fused reporters are not part of them. Lines headed by an entry give the natural chain unless they say otherwise; changes in a name come on top. Chains listed by the source or under a name are the forms on record and can include a tag or linker.
Rab27A part of fRab27A-C188 (Q78L, C123S), Cys188 conjugated with A01 (P51159, form named): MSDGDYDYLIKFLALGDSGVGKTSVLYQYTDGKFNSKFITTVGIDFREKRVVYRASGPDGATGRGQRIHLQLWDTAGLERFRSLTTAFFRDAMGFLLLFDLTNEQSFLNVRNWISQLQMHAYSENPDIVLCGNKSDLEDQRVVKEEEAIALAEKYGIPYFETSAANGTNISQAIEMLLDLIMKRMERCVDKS

For the test, the target named is Rab27A part of fRab27A-C188 (Q78L, C123S), Cys188 conjugated with A01 (human) (UniProt P51159). The experiment in a line: crystal structure; Slp2a SHD1 (5-32) fused to the N-terminus of Rab27A via a poly glycine-serine linker on one chain; apo or with a covalent fragment (A01, B01) on a cysteine; both purified.

B1: Slp2a SHD1 (residues 5-32) part of fusion-Rab27A (peptide)
chain: SFLTEEEQEAIMKVLQRDAALKRAEEER
In the case of B1, the binding result is “binds”.

For the origin of these results see paper PMC8864489.
